PubChem BioAssay AID2685 (National Center for Advancing Translational Sciences (NCATS), 2010)
The list shows a part of the results. Further columns of the screen follow, without active or inactive calls. The list favours compounds with an active or inconclusive main result. Words in brackets tell the shape of the fitted curve; partial curves, single points and poor fits give uncertain potencies.

Experiment: qHTS Assay for Lipid Storage Modulators in Drosophila S3 Cells;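 for cell number change: cells counted by Cell Tracker Red CMTPX staining in the red channel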
Settings: BODIPY lipid droplet fluorescence, 18-24 h; for cell number change: measured here: cell count max response, cells fed with added oleic acid
How it was run: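 Drosophila S3 cells loaded with oleic acid (400 uM, as added) and compounds at several concentrations; lipid droplets imaged by 488-nm laser-scanning cytometry, 500–530 nm intensity and object ratio to cell channel. Percent activity normalized to 20 uM Triacsin C.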

[1] = measured here: lipid fluorescence (Fed channel) AC50, cells fed with added oleic acid
[2] = measured here: cell number channel AC50, cells fed with added oleic acid

Structure (SMILES) | cell number change [%] | AC50 [1] | AC50 [2]
COc1ccc(/C=C2\C(=O)ON=C2c2ccccc2)cc1 | -24.2 | 32.6 µM [falling, single point] | 
CCCOc1ccc(C(=O)NC(=S)Nc2nc3ccccc3s2)cc1 | -6.9 |  | 
Cc1ccc(S(=O)(=O)/N=C(/Nc2ccc3[nH]c(=O)[nH]c3c2)c2ccc(F)cc2)cc1 | 8.92 |  | 
COC(=O)C1=C(C(=O)OC)[C@@H]2Nc3ccccc3[C@@]23C[C@@H](C(=O)OC)N(C(=O)c2ccc(Br)cc2)C3=N1 | -6.22 | 6.51 µM [falling, single point] | 
CCCc1cc2c(cc1NS(=O)(=O)c1ccc(CCNC(C)=O)cc1)OCO2 | -24.6 | 13 µM [falling, partial curve, poor fit] | 
Cc1nc(-c2cccc(S(=O)(=O)N3CCCC(C)C3)c2)cs1 (stereo not drawn) | -14.5 |  | 
CN(c1ccccc1)S(=O)(=O)c1cccc(C(=O)OCC(=O)NCCCN2CCCC2=O)c1 |  | 6.51 µM [rising, partial curve, poor fit] | 
CCCCN(C(=O)C(C)(C)Oc1ccc(Cl)cc1)c1c(N)n(CCC)c(=O)[nH]c1=O | -15 | 10.3 µM [falling, partial curve] | 
COc1ccc(NC(=O)c2cc(S(=O)(=O)N3CCCC3)cn2C)cc1Cl | 12.7 | 4.11 µM [falling, full curve] | 
CCOC(=O)c1ccc(NC(=O)c2cn(-c3ccccc3)nc2-c2ccncc2)cc1 | -2.73 |  | 
Cc1cc(C)cc(NC(=O)CN2CCc3ccccc3C2)c1 | -33.5 | 16.4 µM [falling, single point] | 29.1 µM [falling, single point]
N#CC1=C(N)SC(N)=C(C#N)C1Cc1ccccc1 | 52.3 | 29.1 µM [rising, single point] | 23.1 µM [rising, single point]
CCOC(=O)Cn1c(=N)n(CCOc2ccc3ccccc3c2)c2ccccc21 | 21.7 | 5.8 µM [rising, single point] | 
COc1ccc(NC(=O)Nc2ccc(F)c(F)c2)c(OC)c1 | -7.68 | 0.231 µM [falling, full curve, poor fit] | 
CCOC(=O)c1c(C)[nH]c(C(=O)OCC(=O)N(CC(C)C)C2CCS(=O)(=O)C2)c1C (stereo not drawn) | 2.27 | 0.82 µM [rising, single point] | 
Cc1nc(C)c2c(c1C(F)(F)F)-c1ccccc1C2(F)F | 0.875 |  | 
O=S(=O)(NC1CCCCC1N1CCCCC1)c1ccccc1 (stereo not drawn) | 48.6 |  | 
CN(C)Cc1c(C(=O)Nc2ccccc2)[nH]c2ccccc12 | 15.6 | 9.2 µM [rising, partial curve] | 
Cc1ccc2nc(-c3ccccc3)cc(C(=O)NCC3CCCO3)c2c1 (stereo not drawn) | 28.8 | 0.461 µM [rising, full curve, poor fit] | 0.326 µM [rising, full curve, poor fit]
CCn1c(SCC(=O)NCc2ccccc2)nnc1C(CO)NC(=O)c1ccccc1 (stereo not drawn) | 18.5 | 29.1 µM [rising, single point] | 
O=C(CC1(O)C(=O)Nc2ccccc21)c1ccc(-n2cccc2)cc1 (stereo not drawn) | -6.88 |  | 

Structure (SMILES) | cell number change [%] | AC50 [1] | AC50 [2]
CCOC1CCc2c(C)nc(N)nc2S1 (stereo not drawn) | -15.3 | 32.6 µM [rising, single point] | 0.00461 µM [falling, full curve, poor fit]
COc1ccc(N2CCN(Cc3cc(=O)oc4ccc(C)cc34)CC2)cc1 | -3.26 | 2.31 µM [rising, full curve, poor fit] | 
CCCc1cc(=O)[nH]c(SCC(=O)NC(=O)c2ccccc2)n1 | 0.349 | 0.00461 µM [falling, full curve, poor fit] | 
COc1ccccc1NC(=O)CSc1nnc(CNC(=O)c2ccco2)n1C | -10.5 | 0.112 µM [rising, full curve, poor fit] | 
CCCC(C)C(=O)Nc1ccc(NC(C)=O)cc1 (stereo not drawn) | -105 | 25.9 µM [falling, partial curve] | 16.4 µM [falling, partial curve]
COc1ccccc1C(=O)NCCCNC(=O)c1cnccn1 | 20.3 | 29.1 µM [rising, single point] | 
NC(=O)c1cc2cc(Br)ccc2o/c1=N/NC(=O)c1cccc(F)c1 | 2.01 | 2.06 µM [rising, partial curve, poor fit] | 
O=C(NCc1ccc(Cl)cc1Cl)C1CC(=O)N(Cc2ccccc2)C1 (stereo not drawn) | -17.1 |  | 
O=C(CNC(c1ccccc1)c1ccccc1)Nc1c(F)cccc1F | 10.8 |  | 
O=C(NCCc1c[nH]c2ccccc12)C(=O)Nc1cc2c3c(c1)CC(=O)N3CCC2 |  | 0.231 µM [rising, full curve, poor fit] | 
COC(=O)c1ccc(CNC(=O)c2ccc3oc(C(C)C)nc3c2)cc1 | 22 | 6.51 µM [rising, single point] | 
CSc1ccc(CNc2ccc(Cl)cc2)cc1 | 24.4 |  | 
COc1ccc(-c2cn(-c3ccc(C)cc3)c(=O)n2CC(=O)Nc2cccc(F)c2)cc1 | 127 | 6.51 µM [falling, single point] | 23.1 µM [rising, partial curve]
O=C(NCCN1CCCc2ccccc21)C1CCC(=O)N(CCc2ccccc2)C1 (stereo not drawn) | -5.57 |  | 
Cc1cc(C)n(C(CC(=O)O)C(=O)O)n1 (stereo not drawn) | 7.95 | 25.9 µM [falling, partial curve] | 
CCOC(=O)c1nn(-c2ccc(Cl)cc2)c(C)cc1=O | -19.1 | 6.51 µM [rising, single point] | 2.31 µM [rising, single point]
CCCn1c(SCC(=O)/C(C#N)=C(\C)N)n[nH]c1=O | 8.86 | 25.9 µM [falling, partial curve, poor fit] | 
CCOc1ccc(NC(=O)CSc2nnc(-c3ccccc3)n2N)cc1 | -6.28 | 0.0259 µM [rising, full curve, poor fit] | 
Cc1ccc(C)c(OCCSc2nnc(C)c(=O)[nH]2)c1 |  | 0.164 µM [falling, full curve, poor fit] | 
COc1ccc(NC(=S)NNC(=O)c2cccs2)cc1 | -3.33 | 4.11 µM [rising, single point] | 
CC(C)C[C@H](NC(=O)c1nc[nH]c1C(=O)N[C@@H](CC(C)C)C(=O)OC(C)(C)C)C(=O)OCc1ccccc1 |  | 7.31 µM [falling, partial curve] | 0.00411 µM [rising, full curve, poor fit]

Structure (SMILES) | cell number change [%] | AC50 [1] | AC50 [2]
Cc1ccc(C(C)(C)C)c(OCCCn2ccnc2)c1 | -8.48 | 0.13 µM [rising, full curve, poor fit] | 
CC(=O)c1c(C)[nH]c(C(=O)NCc2ccccn2)c1C |  | 6.51 µM [rising, single point] | 3.66 µM [rising, single point]
CC1CCN(C(=O)CSc2nnc(CNc3ccc(F)cc3)n2Cc2ccco2)CC1 | -6.17 | 3.26 µM [falling, full curve] | 
CN1CCN(c2nc(-c3ccco3)cc(C(F)(F)F)n2)CC1 | 19.1 |  | 
O=C(NCc1ccccn1)C1CCN(S(=O)(=O)c2cccs2)CC1 | 5.97 | 6.51 µM [falling, single point] | 
COC(=O)c1ccccc1NC(=O)c1cncc(Br)c1 | 15 | 0.00651 µM [rising, full curve, poor fit] | 
CC1CCc2nc(/C(C#N)=C/c3ccncc3)sc2C1 (stereo not drawn) |  | 3.26 µM [rising, single point] | 
Cc1ccc(S(=O)(=O)NNC(=O)c2ccncc2)cc1[N+](=O)[O-] | -5.8 | 29.1 µM [rising, single point] | 
O=C1NC(=O)C2C1C(c1ccccc1)N1C3C(=O)NC(=O)C3C(c3ccccc3)N21 (stereo not drawn) | -21.3 |  | 0.164 µM [falling, full curve, poor fit]
O=C(NCc1ccco1)C(=S)N1CCCC1 | 3.51 |  | 7.31 µM [falling, single point]
CCS(=O)(=O)N1CCN(S(=O)(=O)c2ccccc2[N+](=O)[O-])CC1 | -13.7 | 29.1 µM [falling, single point] | 
COc1cccc(NC(=O)CSc2ncnc3c2oc2ccccc23)c1 | 75.3 | 23.1 µM [rising, single point] | 2.91 µM [rising, full curve]
COc1ccc(O)c(CN2CCC(n3nccc3NC(=O)c3ccccc3Cl)CC2)c1 | 26.6 | 3.66 µM [falling, partial curve] | 0.146 µM [rising, full curve, poor fit]
COc1ccc(OC)c(NC(=O)CSc2nnc(-c3ccco3)n2-c2ccccc2)c1 |  |  | 0.411 µM [rising, partial curve, poor fit]
COc1ccccc1C(CNC(=O)CNC(=O)c1ccc(C)c(C)c1)N1CCCC1 (stereo not drawn) | 0.402 | 20.6 µM [rising, partial curve, poor fit] | 
O=C(CN(Cc1ccco1)C(=O)c1ccc([N+](=O)[O-])cc1)Nc1ccccc1C(F)(F)F | -7.02 | 11.6 µM [falling, partial curve, poor fit] | 
CC(=O)N1CCN(c2ccc(NC(=O)COc3ccc(Cl)cc3Cl)cc2)CC1 | -24.9 | 0.103 µM [rising, full curve, poor fit] | 
Cc1noc(C)c1COc1ccc(CC(=O)NCCc2ccccn2)cc1 | 0.794 |  | 
O=C(c1ccc(COc2c(F)c(F)cc(F)c2F)o1)N1CCN(c2ccc(Cl)cc2)CC1 | -10.2 | 14.6 µM [rising, partial curve] | 

5 entries from above, arranged by molar mass, largest number first.
Structure (SMILES) | cell number change [%] | AC50 [1] | AC50 [2]
CCCCN(C(=O)C(C)(C)Oc1ccc(Cl)cc1)c1c(N)n(CCC)c(=O)[nH]c1=O | -15 | 10.3 µM [falling, partial curve] | 
CCOC(=O)c1ccc(NC(=O)c2cn(-c3ccccc3)nc2-c2ccncc2)cc1 | -2.73 |  | 
COc1ccc(NC(=O)c2cc(S(=O)(=O)N3CCCC3)cn2C)cc1Cl | 12.7 | 4.11 µM [falling, full curve] | 
O=S(=O)(NC1CCCCC1N1CCCCC1)c1ccccc1 (stereo not drawn) | 48.6 |  | 
CC(=O)c1c(C)[nH]c(C(=O)NCc2ccccn2)c1C |  | 6.51 µM [rising, single point] | 3.66 µM [rising, single point]
